Where a name gives a salt, the structure may show the parent alone. The list shows a part of the results. Single values are uncertain here, since repeats match poorly.
What follows are compounds tested on Brugia pahangi adult female (assay: motility inhibition on day 3 relative to DMSO vehicle; higher = more active). Settings: 10 µM; 3 days.

Row | SMILES | motility inhibition on day 3 [%]
1 | CCNC(=O)/C=C/c1cccc(Br)c1 [cinromide] | < 0
2 | C#C[C@]1(O)CC[C@H]2[C@@H]3CCC4=CC(=NO)CC[C@@H]4[C@H]3CC[C@@]21CC [17-Desacetyl Norgestimate] | 0.523
3 | COc1ccc2cc(C(C)C(=O)O)ccc2c1 (single isomer, unassigned; (+)) [(+)naproxen] | 6.28
4 | CO/N=C(\C(=O)N[C@@H]1C(=O)N2C(C(=O)OC(C)OC(C)=O)=C(COC(N)=O)CS[C@H]12)c1ccco1 (some centres undefined) [cefuroxime axetil] | < 0
5 | O=C(c1ccccc1)c1ccc2n1CCC2C(=O)O (centres undefined) [ketorolac tromethamine] | 0.59
6 | COc1c(N2CCNC(C)C2)c(F)cc2c(=O)c(C(=O)O)cn(C3CC3)c12 (centres undefined) [gatifloxacin] | < 0
7 | OCc1ccccc1O [salicyl alcohol] | 24.3
8 | NC(=O)[C@@H]1CCCN1C(=O)[C@H](Cc1c[nH]cn1)NC(=O)[C@@H]1CCC(=O)N1 [protirelin] | 12.3
9 | CN(C)CC(c1ccc(O)cc1)C1(O)CCCCC1 (centres undefined) [desvenlafaxine succinate] | 10.1
10 | CC(=O)Oc1cccc(C)c1 [meta-cresyl acetate] | < 0
11 | CCN[C@@H]1C[C@H](N)[C@@H](O[C@H]2OC(CN)=CC[C@H]2N)[C@H](O)[C@H]1O[C@H]1OC[C@](C)(O)[C@H](NC)[C@H]1O [netilmicin sulfate] | 1.95
12 | CC(C)(O)c1ccccc1CC[C@@H](SCC1(CC(=O)O)CC1)c1cccc(/C=C/c2ccc3ccc(Cl)cc3n2)c1 [montelukast sodium] | 8.97
13 | CN1Cc2c(N)cccc2C(c2ccccc2)C1 (centres undefined) [Nomifensine maleate] | 28.4
14 | FC(F)(F)COCC(F)(F)F [flurothyl] | < 0
15 | Cc1cc(-c2ccc(/N=N/c3ccc4c(S(=O)(=O)O)cc(S(=O)(=O)O)c(N)c4c3O)c(C)c2)ccc1/N=N/c1ccc2c(S(=O)(=O)O)cc(S(=O)(=O)O)c(N)c2c1O [evans blue] | 7.85
16 | C=CCSCC1Nc2cc(Cl)c(S(N)(=O)=O)cc2S(=O)(=O)N1 (centres undefined) [althiazide] | 13
17 | CC(=O)N(CC(O)CN(C(C)=O)c1c(I)c(C(=O)NCC(O)CO)c(I)c(C(=O)NCC(O)CO)c1I)c1c(I)c(C(=O)NCC(O)CO)c(I)c(C(=O)NCC(O)CO)c1I (centres undefined) [iodixanol] | 13.5
18 | NC(=O)NS(=O)(=O)c1ccc(N)cc1 [sulfacarbamide] | 6.79
19 | CN(C)CC/C=C1/c2ccccc2COc2ccc(CC(=O)O)cc21 | 19.2
20 | COc1cc(/C=C/C(=O)N2CCCCCCC2)cc(OC)c1OC [cinoctramide] | 23.7
21 | c1ccc(CN(CC2=NCCN2)c2ccccc2)cc1 [antazoline phosphate] | 10.8
22 | CC[C@H](C)C[C@H](C)CCCCCCCCC(=O)N[C@H]1C[C@@H](O)[C@@H](NCCN)NC(=O)[C@@H]2[C@@H](O)CCN2C(=O)[C@H]([C@H](O)CCN)NC(=O)[C@H]([C@H](O)[C@@H](O)c2ccc(O)cc2)NC(=O)[C@@H]2C[C@@H](O)CN2C(=O)[C@H]([C@@H](C)O)NC1=O [Caspofungin diacetate] | 27.4

Row | SMILES | motility inhibition on day 3 [%]
23 | CCC[C@@]1(CCc2ccccc2)CC(O)=C([C@H](CC)c2cccc(NS(=O)(=O)c3ccc(C(F)(F)F)cn3)c2)C(=O)O1 [Tipranavir] | < 0
24 | C=CCOC(Cn1ccnc1)c1ccc(Cl)cc1Cl (centres undefined) [enilconazole] | 9.22
25 | N=C(N)NCCN1CCCCCCC1 [guanethidine sulfate] | 17.4
26 | CC(C)CCCC(C)NC(C)C (centres undefined) [iproheptine] | 40.4
27 | CC(CN(C)C)CN1c2ccccc2Sc2ccccc21 (centres undefined) [trimeprazine tartrate] | 10.8
28 | CC1(C)[C@@H](OC(=O)CCC(=O)O)CC[C@]2(C)[C@H]3C(=O)C=C4[C@@H]5C[C@@](C)(C(=O)O)CC[C@]5(C)CC[C@@]4(C)[C@]3(C)CC[C@@H]12 [carbenoxolone sodium] | 4.58
29 | CC(=O)OCC(=O)[C@H]1CC[C@H]2[C@@H]3CCC4=CC(=O)CC[C@]4(C)[C@H]3CC[C@]12C [desoxycorticosterone acetate] | 5.3
30 | CCCOc1ccc(C(=O)OCCN(CC)CC)cc1N [proparacaine hydrochloride] | < 0
31 | CCN(CC)CCOCCOC(=O)C(CC)(CC)c1ccccc1 [oxelaidin citrate] | < 0
32 | O=C(O)CCC/C=C\C[C@@H]1[C@@H](/C=C/C(F)(F)COc2ccccc2)[C@H](O)C[C@@H]1O [Tafluprost (free acid)] | < 0
33 | C[C@]1(Cn2ccnn2)[C@H](C(=O)O)N2C(=O)C[C@H]2S1(=O)=O [tazobactam] | 35.4
34 | CC[C@@H](CO)NCCN[C@@H](CC)CO [ethambutol hydrochloride] | 2.65
35 | CC(=O)OCC(=O)[C@@]1(OC(C)=O)[C@@H](C)C[C@H]2[C@@H]3C[C@H](F)C4=CC(=O)C=C[C@]4(C)[C@@]3(F)[C@@H](O)C[C@@]21C [diflorasone diacetate] | 17
36 | CC(=O)[O-].CC(=O)[O-].[Ca+2] [Calcium acetate] | 98.5
37 | CCCCC1(COC(=O)CCC(=O)O)C(=O)N(c2ccccc2)N(c2ccccc2)C1=O [suxibuzone] | 7.91
38 | COc1cc(NC(C)CCCN)c2ncccc2c1 (centres undefined) [primaquine diphosphate] | 50.7
39 | CN(C)[C@@H]1C(O)=C(C(N)=O)C(=O)[C@@]2(O)C(O)=C3C(=O)c4c(O)cccc4[C@@](C)(O)[C@H]3[C@H](O)[C@@H]12 [oxytetracycline] | 24.6
40 | Cc1cc(-c2ccccc2)nnc1NCCN1CCOCC1 [minaprine hydrochloride] | < 0
41 | NC(N)=Nc1nc(CSCC/C(N)=N/S(N)(=O)=O)cs1 [famotidine] | 9.66
42 | Cl.N=C(N)NCCC[C@H](N)C(=O)O [arginine hydrochloride] | 1.85
43 | CC1=C(/C=C/C(C)=C/C=C/C(C)=C\C(=O)O)C(C)(C)CCC1 [isotretinon] | 17.6
44 | CC/C(=C(/CC)c1ccc(O)cc1)c1ccc(O)cc1 [diethylstilbestrol] | 12.2

Gathered by group: the compounds so far containing a CF3 group
Row | SMILES | motility inhibition on day 3 [%]
14 | FC(F)(F)COCC(F)(F)F [flurothyl] | < 0
23 | CCC[C@@]1(CCc2ccccc2)CC(O)=C([C@H](CC)c2cccc(NS(=O)(=O)c3ccc(C(F)(F)F)cn3)c2)C(=O)O1 [Tipranavir] | < 0

Pulled by structure from the list above, 2 records:
Row | SMILES | motility inhibition on day 3 [%]
37 | CCCCC1(COC(=O)CCC(=O)O)C(=O)N(c2ccccc2)N(c2ccccc2)C1=O [suxibuzone] | 7.91
23 | CCC[C@@]1(CCc2ccccc2)CC(O)=C([C@H](CC)c2cccc(NS(=O)(=O)c3ccc(C(F)(F)F)cn3)c2)C(=O)O1 [Tipranavir] | < 0

Reference: the supplement of paper PMC7830784
